Measurements from patent publication US11154513B2, “Semifluorinated compounds” (NOVALIQ GMBH, priority 2015, dated 2021).
The name of at least one read-out is uncertain.

Experiment: DSC of mixtures with tetradecane (C14)
Type: physicochemical
Conditions: compared to CF3(CF2)5(CH2)7CH3

CCCCCCC(C)C(F)(F)C(F)(F)C(F)(F)C(F)(F)C(F)(F)C(F)(F)F (stereo not shown) [CF3—(CF2)5—CH(CH3)—(CH2)5—CH3, 2-Perfluorohexyl-octane]
solubilizing capacity (tetradecane): stronger solubilizing capacity
